{"sequences": {"note": "Protein sequences, listed by entry. Tags and fused reporters are not part of them. Lines headed by an entry give the natural chain unless they say otherwise; changes in a name come on top.", "UniProt Q00613": "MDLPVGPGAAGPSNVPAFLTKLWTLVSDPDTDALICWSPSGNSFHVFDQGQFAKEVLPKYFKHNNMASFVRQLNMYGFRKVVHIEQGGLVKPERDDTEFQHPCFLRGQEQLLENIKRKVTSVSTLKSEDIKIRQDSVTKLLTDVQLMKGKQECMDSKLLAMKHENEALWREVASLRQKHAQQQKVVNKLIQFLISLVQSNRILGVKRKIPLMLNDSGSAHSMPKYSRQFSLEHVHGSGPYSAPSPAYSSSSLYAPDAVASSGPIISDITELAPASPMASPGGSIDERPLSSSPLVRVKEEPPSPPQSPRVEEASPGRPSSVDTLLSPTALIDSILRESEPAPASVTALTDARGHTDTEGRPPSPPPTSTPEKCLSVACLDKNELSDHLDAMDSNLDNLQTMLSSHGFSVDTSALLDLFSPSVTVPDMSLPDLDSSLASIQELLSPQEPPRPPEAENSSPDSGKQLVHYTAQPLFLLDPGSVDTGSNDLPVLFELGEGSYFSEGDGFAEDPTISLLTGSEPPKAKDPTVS"}, "source": "paper PMC7862700", "note": "This is a selection; strong and weak results do not stand in their true shares. For some assays here: At the low end of the ranking the order means little. The list shows a part of the results. For some assays here: Construct or isoform of the protein are uncertain."}
{"molecular_target": "HSF1 (UniProt Q00613)", "assay": "DAPPL (digital affinity profiling via proximity ligation, sequencing)", "conditions": "10 mM Tris-HCl pH 7.5, 50 mM NaCl, 1 mM DTT, 4% glycerol, room temperature, 30 min; GST-TFs on glutathione beads, 16-mer random dsDNA library, 0.1% …; high values mean tight binding; double strand, one strand shown; scale: fold enrichment (6-mer frequency, TF over GST control)"}
{"sequence": "TCCTGG", "binding signal": 1.29}
{"sequence": "TCTTTC", "binding signal": 1.82}
{"sequence": "TGAAAG", "binding signal": 1.08}
{"sequence": "CCAACG", "binding signal": 0.971}
{"sequence": "GTTTCA", "binding signal": 0.982}
{"sequence": "TCATGG", "binding signal": 0.998}
{"sequence": "CCATAC", "binding signal": 0.944}
{"sequence": "CAGCCC", "binding signal": 0.92}
{"sequence": "ATTGCA", "binding signal": 1.06}
{"sequence": "CTGGGC", "binding signal": 0.949}
{"sequence": "ATTACC", "binding signal": 1.58}
{"sequence": "ATTGGC", "binding signal": 0.943}
{"sequence": "CTCGCA", "binding signal": 1.61}
{"sequence": "CCTCCA", "binding signal": 1.29}
{"sequence": "CCACCT", "binding signal": 0.931}
{"sequence": "TGCCGG", "binding signal": 0.718}
{"sequence": "CACCTG", "binding signal": 0.808}
{"sequence": "TACGGT", "binding signal": 0.896}
{"sequence": "TAAAGG", "binding signal": 1.15}
{"sequence": "CTATCC", "binding signal": 1.25}
{"sequence": "CGAATG", "binding signal": 1.5}
{"sequence": "GGTGGT", "binding signal": 0.795}
{"sequence": "AAGTAG", "binding signal": 1.11}
{"sequence": "TTCTGA", "binding signal": 1.48}
{"sequence": "AGGACC", "binding signal": 0.925}
{"sequence": "TATCTT", "binding signal": 1.48}
{"sequence": "GCGACC", "binding signal": 0.854}
{"sequence": "GTACCA", "binding signal": 0.896}
{"sequence": "ATCTCA", "binding signal": 1.19}
{"sequence": "ACCCGG", "binding signal": 0.798}
{"sequence": "CCTTTG", "binding signal": 1.21}
{"sequence": "CCATCT", "binding signal": 1.31}
{"sequence": "GCAAAC", "binding signal": 0.802}
{"sequence": "TCATAT", "binding signal": 1.15}
{"sequence": "CCTGTA", "binding signal": 0.962}
{"sequence": "TACGGA", "binding signal": 0.951}
{"sequence": "TTAGCA", "binding signal": 1.7}
{"sequence": "CTGTCC", "binding signal": 0.948}
{"sequence": "TTATCT", "binding signal": 2.24}
{"sequence": "ACGATG", "binding signal": 0.916}
{"molecular_target": "T1, ELF2 (UniProt Q15723)", "T1 sequence": "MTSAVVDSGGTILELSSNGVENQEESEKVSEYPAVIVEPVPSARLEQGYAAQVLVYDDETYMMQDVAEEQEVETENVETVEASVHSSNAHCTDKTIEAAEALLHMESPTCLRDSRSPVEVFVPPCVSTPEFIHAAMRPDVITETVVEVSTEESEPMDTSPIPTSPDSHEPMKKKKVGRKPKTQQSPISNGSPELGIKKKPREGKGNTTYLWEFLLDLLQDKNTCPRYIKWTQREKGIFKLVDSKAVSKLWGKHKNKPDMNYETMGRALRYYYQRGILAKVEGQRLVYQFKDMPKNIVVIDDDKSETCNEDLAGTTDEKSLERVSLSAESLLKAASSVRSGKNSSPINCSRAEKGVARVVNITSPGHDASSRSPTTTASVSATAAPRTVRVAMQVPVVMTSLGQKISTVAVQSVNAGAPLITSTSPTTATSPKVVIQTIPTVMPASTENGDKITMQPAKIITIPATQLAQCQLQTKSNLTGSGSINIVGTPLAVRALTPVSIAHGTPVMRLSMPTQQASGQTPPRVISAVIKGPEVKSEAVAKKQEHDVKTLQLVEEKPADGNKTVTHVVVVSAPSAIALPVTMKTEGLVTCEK", "assay": "DAPPL (digital affinity profiling via proximity ligation, sequencing)", "conditions": "10 mM Tris-HCl pH 7.5, 50 mM NaCl, 1 mM DTT, 4% glycerol, room temperature, 30 min; GST-TFs on glutathione beads, 16-mer random dsDNA library, 0.1% …; high values mean tight binding; double strand, one strand shown; scale: fold enrichment (6-mer frequency, TF over GST control)"}
{"sequence": "TCCTGG", "binding signal": 1.96}
{"sequence": "TCTTTC", "binding signal": 1.43}
{"sequence": "TGAAAG", "binding signal": 0.961}
{"sequence": "CCAACG", "binding signal": 1.04}
{"sequence": "GTTTCA", "binding signal": 1.28}
{"sequence": "TCATGG", "binding signal": 1.02}
{"sequence": "CCATAC", "binding signal": 1.13}
{"sequence": "CAGCCC", "binding signal": 1.11}
{"sequence": "ATTGCA", "binding signal": 1.11}
{"sequence": "CTGGGC", "binding signal": 1.01}
{"sequence": "ATTACC", "binding signal": 1.3}
{"sequence": "ATTGGC", "binding signal": 1.09}
{"sequence": "CTCGCA", "binding signal": 1.23}
{"sequence": "CCTCCA", "binding signal": 1.28}
{"sequence": "CCACCT", "binding signal": 0.991}
{"sequence": "TGCCGG", "binding signal": 1.2}
{"sequence": "CACCTG", "binding signal": 0.9}
{"sequence": "TACGGT", "binding signal": 0.97}
{"sequence": "TAAAGG", "binding signal": 1.03}
{"sequence": "CTATCC", "binding signal": 1.38}
{"sequence": "CGAATG", "binding signal": 0.99}
{"sequence": "GGTGGT", "binding signal": 0.962}
{"sequence": "AAGTAG", "binding signal": 1.38}
{"sequence": "TTCTGA", "binding signal": 1.16}
{"sequence": "AGGACC", "binding signal": 1.03}
{"sequence": "TATCTT", "binding signal": 1.3}
{"sequence": "GCGACC", "binding signal": 1.06}
{"sequence": "GTACCA", "binding signal": 0.981}
{"sequence": "ATCTCA", "binding signal": 1.07}
{"sequence": "ACCCGG", "binding signal": 2.69}
{"sequence": "CCTTTG", "binding signal": 1.25}
{"sequence": "CCATCT", "binding signal": 1.19}
{"sequence": "GCAAAC", "binding signal": 0.952}
{"sequence": "TCATAT", "binding signal": 1.21}
{"sequence": "CCTGTA", "binding signal": 1.25}
{"sequence": "TACGGA", "binding signal": 1.82}
{"sequence": "TTAGCA", "binding signal": 1.16}
{"sequence": "CTGTCC", "binding signal": 1.18}
{"sequence": "TTATCT", "binding signal": 1.26}
{"sequence": "ACGATG", "binding signal": 1.05}
